Results published in the supplement of paper PMC3741180, “A Novel High Throughput Biochemical Assay to Evaluate the HuR Protein-RNA Complex Formation” (PLoS ONE, 2013).
The list shows a part of the results. Most values lie within the scatter of the assay; repeated measurements hardly agree.

The chains behind the UniProt entries cited, without tags or fusion partners.
UniProt Q15717, whole entry: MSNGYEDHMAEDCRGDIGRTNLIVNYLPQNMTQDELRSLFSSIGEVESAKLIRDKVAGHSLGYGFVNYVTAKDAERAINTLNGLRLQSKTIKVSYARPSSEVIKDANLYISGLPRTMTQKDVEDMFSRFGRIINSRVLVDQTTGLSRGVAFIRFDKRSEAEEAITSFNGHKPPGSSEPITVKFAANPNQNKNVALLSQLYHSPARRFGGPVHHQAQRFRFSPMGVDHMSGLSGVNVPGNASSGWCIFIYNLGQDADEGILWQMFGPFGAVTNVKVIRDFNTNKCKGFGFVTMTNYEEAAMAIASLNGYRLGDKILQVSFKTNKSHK

These compounds were tested against HuR (ELAVL1) - TNFalpha ARE RNA complex (UniProt Q15717) (assay: AlphaScreen HuR-RNA complex signal Z-score relative to positive (Bi-TNF, DMSO) controls (Z-score (SD units of positive control)); higher = more complex signal). Conditions: screen stage: primary screen; compound concentration: 25 nM.

SMILES | AlphaScreen HuR-RNA complex signal Z-score
CC(C)c1ccc2c(c1)CCC1C(C)(C(N)=O)CCCC21C (stereo not drawn) | 1.83
COc1cc(OC)c2c(=O)c(OC)c(-c3ccc(OC)c(OC)c3)oc2c1 | 0.268
CC[C@@]1(O)C(=O)OCc2c1cc1n(c2=O)Cc2cc3cc(O)ccc3nc2-1 | 1.69
O=C(O)Cc1ccccc1Nc1c(Cl)cccc1Cl | -2.58
O=c1cc(-c2cc(O)c(O)c(O)c2)oc2cc(O)cc(O)c12 | 2.88
C[C@@H]1O[C@@H](Oc2c(-c3ccc(O)c(O)c3)oc3cc(O)cc(O)c3c2=O)[C@H](O)[C@H](O)[C@H]1O | 0.676
N=c1ccn2c(n1)O[C@H]1[C@H](O)[C@@H](CO)O[C@H]12 | -0.461
O=c1[nH]cc(F)c(=O)[nH]1 | -4.7
O=C(O)c1cc(=O)c2cccc(O)c2[nH]1 | 1.23
C[C@]12C=CC(=O)C=C1CC[C@@H]1[C@@H]2[C@@H](O)C[C@@]2(C)[C@H]1CC[C@]2(O)C(=O)CO | 7.26
CS(=O)(=O)c1ccc([C@@H](O)[C@@H](CO)NC(=O)C(Cl)Cl)cc1 | 0.891
Clc1ccccc1CN1CCc2sccc2C1 | 2.96
Cc1cc(OC(=O)c2c(C)cc(O)cc2O)cc(O)c1C(=O)O | 2.45
Nc1ccc(O)c(C(=O)O)c1 | 1.15
Cc1cc(C(C)(C)CC(C)(C)C)ccc1OCCOCC[N+](C)(C)Cc1ccccc1 | 1.61
Cc1cc(NC(=O)C2=C(O)c3ccccc3S(=O)(=O)N2C)no1 | 1.38
CN(C)CCCN1c2ccccc2CCc2ccc(Cl)cc21 | 4.66
COC(=O)C1=C(C)NC(C)=C(C(=O)OC)C1c1ccccc1[N+](=O)[O-] | -6.29
CO[C@@]1(NC(=O)C(C(=O)O)c2ccc(O)cc2)C(=O)N2C(C(=O)O)=C(CSc3nnnn3C)CO[C@@H]21 (stereo partly drawn) | -6.26
O=c1c(O)c(-c2ccccc2)oc2ccccc12 | -0.548
C#C[C@]1(O)CC[C@H]2[C@@H]3CCC4=CC(=O)CC[C@@H]4[C@H]3CC[C@@]21C | 6.55
C#C[C@]1(OC(C)=O)CC[C@H]2[C@@H]3CCC4=C[C@@H](OC(C)=O)CC[C@@H]4[C@H]3CC[C@@]21C | 2.35
C[C@@H]1CC[C@@]2(OC1)O[C@H]1C[C@H]3[C@@H]4CC[C@H]5C[C@@H](O)CC[C@]5(C)[C@H]4CC[C@]3(C)[C@H]1[C@@H]2C | 1.04
Nc1ccc(S(=O)(=O)Nc2ncccn2)cc1 | 6.16

SMILES | AlphaScreen HuR-RNA complex signal Z-score
Cc1c(Cl)cccc1Nc1ccccc1C(=O)O | 1.65
CCCSc1ccc2[nH]c(NC(=O)OC)nc2c1 | -3.15
C[C@@H]1CC[C@H]2C(C)(C)[C@H]3C[C@@]12CC[C@@]3(C)O | 1.58
CC=C(C)C(=O)OC1C(OC(C)=O)C2(CO)C(O)CC3(C)C(=CCC4C5(C)CCC(OC6OC(C(=O)O)C(OC7OC(CO)C(O)C(O)C7O)C(O)C6OC6OC(CO)C(O)C(O)C6O)C(C)(CO)C5CCC43C)C2CC1(C)C (stereo not drawn) [beta-ESCIN] | 1.44
CC(=O)C1=C(O)C=C2Oc3c(C(C)=O)c(O)c(C)c(O)c3C2(C)C1=O (stereo in doubt) | 2.44
CO[C@H]1/C=C/O[C@@]2(C)Oc3c(C)c(O)c4c(O)c(c(/C=N/N5CCN(C)CC5)c(O)c4c3C2=O)NC(=O)/C(C)=C\C=C\[C@H](C)[C@H](O)[C@@H](C)[C@@H](O)[C@@H](C)[C@H](OC(C)=O)[C@@H]1C | -6.31
COc1cc(C)c(C(=O)O)c(O)c1 | 2.7
Cc1ccc(N(CC2=NCCN2)c2cccc(O)c2)cc1 | -3.01
O=C(O)c1ccccc1-c1c2cc(I)c(=O)c(I)c-2oc2c(I)c(O)c(I)cc12 | 3.06
c1ccc(CC2=NCCN2)cc1 | 2.4
NCCCCC(=O)O | 1.65
OCCN1CCN(CCCN2c3ccccc3Sc3ccc(C(F)(F)F)cc32)CC1 | -0.0557
CC(C)(Oc1ccc(CCNC(=O)c2ccc(Cl)cc2)cc1)C(=O)O | 0.358
CC1=CC(=O)[C@H]2C(C)(C)CCC[C@]2(C)[C@@]1(O)CCc1ccoc1 | 3.57
CC(=O)OCC(=O)[C@H]1CC[C@H]2[C@@H]3CC=C4C[C@@H](O)CC[C@]4(C)[C@H]3CC[C@]12C | 0.605
Clc1ccc2c(c1)C(N1CCNCC1)=Nc1ccccc1O2 | 3.93
CC(C)[C@@H](C)/C=C/[C@@H](C)[C@H]1CC[C@H]2C3=CC=C4C[C@@H](O)CC[C@]4(C)[C@H]3CC[C@]12C | 2.61
O=C1c2ccccc2C(=O)C1c1ccccc1 | 5.5
O=C(O)CCc1nc(-c2ccccc2)c(-c2ccccc2)o1 | 0.955
CC[C@H]1OC(=O)[C@H](C)[C@@H](O[C@H]2C[C@@](C)(OC)[C@@H](O)[C@H](C)O2)[C@H](C)[C@@H](O[C@@H]2O[C@H](C)C[C@H](N(C)C)[C@H]2O)[C@](C)(O)C[C@@H](C)C(=O)[C@H](C)[C@@H](O)[C@]1(C)O | -0.744
CC1=C(/C=C/C(C)=C/C=C/C(C)=C/C=C/C=C(C)/C=C/C=C(C)/C=C/C2=C(C)CCCC2(C)C)C(C)(C)CCC1 [beta-CAROTENE] | 0.313
NC(=O)c1ccccc1O | 11.2
CCOC(=O)N1CCC(=C2c3ccc(Cl)cc3CCc3cccnc32)CC1 | 0.757
Nc1nc(F)nc2c1ncn2[C@@H]1O[C@H](COP(=O)(O)O)[C@@H](O)[C@@H]1O | 1.08

25 of the compounds above, as a markdown table.

| SMILES | AlphaScreen HuR-RNA complex signal Z-score |
| --- | --- |
| C#C[C@]1(O)CC[C@H]2[C@@H]3CCC4=CC(=O)CC[C@@H]4[C@H]3CC[C@@]21C | 6.55 |
| C#C[C@]1(OC(C)=O)CC[C@H]2[C@@H]3CCC4=C[C@@H](OC(C)=O)CC[C@@H]4[C@H]3CC[C@@]21C | 2.35 |
| C[C@@H]1CC[C@@]2(OC1)O[C@H]1C[C@H]3[C@@H]4CC[C@H]5C[C@@H](O)CC[C@]5(C)[C@H]4CC[C@]3(C)[C@H]1[C@@H]2C | 1.04 |
| Cc1c(Cl)cccc1Nc1ccccc1C(=O)O | 1.65 |
| CCCSc1ccc2[nH]c(NC(=O)OC)nc2c1 | -3.15 |
| C[C@@H]1CC[C@H]2C(C)(C)[C@H]3C[C@@]12CC[C@@]3(C)O | 1.58 |
| CC=C(C)C(=O)OC1C(OC(C)=O)C2(CO)C(O)CC3(C)C(=CCC4C5(C)CCC(OC6OC(C(=O)O)C(OC7OC(CO)C(O)C(O)C7O)C(O)C6OC6OC(CO)C(O)C(O)C6O)C(C)(CO)C5CCC43C)C2CC1(C)C (stereo not drawn) [beta-ESCIN] | 1.44 |
| CC(=O)C1=C(O)C=C2Oc3c(C(C)=O)c(O)c(C)c(O)c3C2(C)C1=O (stereo in doubt) | 2.44 |
| CO[C@H]1/C=C/O[C@@]2(C)Oc3c(C)c(O)c4c(O)c(c(/C=N/N5CCN(C)CC5)c(O)c4c3C2=O)NC(=O)/C(C)=C\C=C\[C@H](C)[C@H](O)[C@@H](C)[C@@H](O)[C@@H](C)[C@H](OC(C)=O)[C@@H]1C | -6.31 |
| COc1cc(C)c(C(=O)O)c(O)c1 | 2.7 |
| Cc1ccc(N(CC2=NCCN2)c2cccc(O)c2)cc1 | -3.01 |
| O=C(O)c1ccccc1-c1c2cc(I)c(=O)c(I)c-2oc2c(I)c(O)c(I)cc12 | 3.06 |
| c1ccc(CC2=NCCN2)cc1 | 2.4 |
| NCCCCC(=O)O | 1.65 |
| OCCN1CCN(CCCN2c3ccccc3Sc3ccc(C(F)(F)F)cc32)CC1 | -0.0557 |
| CC(C)(Oc1ccc(CCNC(=O)c2ccc(Cl)cc2)cc1)C(=O)O | 0.358 |
| CC1=CC(=O)[C@H]2C(C)(C)CCC[C@]2(C)[C@@]1(O)CCc1ccoc1 | 3.57 |
| CC(=O)OCC(=O)[C@H]1CC[C@H]2[C@@H]3CC=C4C[C@@H](O)CC[C@]4(C)[C@H]3CC[C@]12C | 0.605 |
| CC(C)[C@@H](C)/C=C/[C@@H](C)[C@H]1CC[C@H]2C3=CC=C4C[C@@H](O)CC[C@]4(C)[C@H]3CC[C@]12C | 2.61 |
| O=C1c2ccccc2C(=O)C1c1ccccc1 | 5.5 |
| O=C(O)CCc1nc(-c2ccccc2)c(-c2ccccc2)o1 | 0.955 |
| CC[C@H]1OC(=O)[C@H](C)[C@@H](O[C@H]2C[C@@](C)(OC)[C@@H](O)[C@H](C)O2)[C@H](C)[C@@H](O[C@@H]2O[C@H](C)C[C@H](N(C)C)[C@H]2O)[C@](C)(O)C[C@@H](C)C(=O)[C@H](C)[C@@H](O)[C@]1(C)O | -0.744 |
| CC1=C(/C=C/C(C)=C/C=C/C(C)=C/C=C/C=C(C)/C=C/C=C(C)/C=C/C2=C(C)CCCC2(C)C)C(C)(C)CCC1 [beta-CAROTENE] | 0.313 |
| NC(=O)c1ccccc1O | 11.2 |
| CCOC(=O)N1CCC(=C2c3ccc(Cl)cc3CCc3cccnc32)CC1 | 0.757 |

Remaining list, next part:

SMILES | AlphaScreen HuR-RNA complex signal Z-score
COc1ccc(-c2coc3cc(O)ccc3c2=O)cc1 | 2.47
Oc1c(Br)cc(Br)c2cccnc12 | 1.23
CCC(=O)O[C@H]1CC[C@H]2[C@@H]3CCc4cc(O)ccc4[C@H]3CC[C@]12C | 1.11
CN(C)[C@@H]1C(O)=C(C(N)=O)C(=O)[C@@]2(O)C(O)=C3C(=O)c4c(O)cccc4[C@@](C)(O)[C@H]3C[C@@H]12 | 0.697
COC(=O)[C@H](c1ccccc1Cl)N1CCc2sccc2C1 | 1
C[C@]12CCC(=O)C=C1CC[C@@H]1[C@@H]2C(=O)C[C@@]2(C)[C@H]1CC[C@]2(O)C(=O)CO | 4.08
CCCCCC1C(=O)CCC1CC(=O)OC (stereo not drawn) | 2.67
Nc1ccc(S(=O)(=O)NC(=O)c2ccccc2)cc1 | 11.2
C[N+](C)(C)CCOP(=O)(O)OP(=O)([O-])OC[C@H]1O[C@@H](n2ccc(N)nc2=O)[C@H](O)[C@@H]1O | 3.16
C=C(CC)C(=O)c1ccc(OCC(=O)O)c(Cl)c1Cl | -2.5
O=c1cc(-c2ccc(O)cc2)oc2cc(O[C@@H]3O[C@H](CO)[C@@H](O)[C@H](O)[C@H]3O[C@@H]3OC[C@](O)(CO)[C@H]3O)cc(O)c12 | 2.26
C[C@](N)(Cc1ccc(O)cc1)C(=O)O [alpha-METHYL-L-TYROSINE] | 2.84
CC(C)NCC(O)COc1cccc2ccccc12 (racemic) | 2.21
CS(=O)(=O)c1ccc([C@@H](O)[C@@H](CF)NC(=O)C(Cl)Cl)cc1 | 1.69
CCN(CC)CCCC(C)Nc1ccnc2cc(Cl)ccc12 (stereo not drawn) | -3.9
c1ccc2c(c1)CCCC2C1=NCCN1 (stereo not drawn) | 9.29
Oc1ccc2c(c1)OC[C@]1(O)Cc3cc(O)c(O)cc3[C@H]21 | 1.85
C1N2CN3CN1CN(C2)C3 | 1.13
O=C(O)C1=C[C@@H](O)[C@@H](O)[C@H](O)C1 | 1.26
COc1cc(O)c(C(=O)/C=C/c2ccc(OC)c(O)c2)c(OC)c1 | 0.0759
CC(CCC(=O)O)[C@H]1CCC2C3C[C@H](O)[C@@H]4C[C@H](O)CC[C@]4(C)C3CC[C@@]21C (stereo partly drawn) [alpha-HYDROXYDEOXYCHOLIC ACID] | 3.42
OC[C@@H](O)[C@@H](O)[C@H](O)[C@H](O)CO | -3.35
C=CCc1ccc(O)c(OC)c1 | -0.649
CCn1cc(C(=O)O)c(=O)c2cc(F)c(N3CCNCC3)nc21 | 1.29

SMILES | AlphaScreen HuR-RNA complex signal Z-score
CC(=O)N[C@@H](Cc1c[nH]c2ccccc12)C(=O)O | 1.36
CC(C(=O)O)c1cccc(Oc2ccccc2)c1 (stereo not drawn) | 0.806
O=C(O)CN(CCN(CC(=O)O)CC(=O)O)CC(=O)O.[Na+].[Na+].[Na+] | -3.59
O=C1OC(c2ccc(O)cc2)(c2ccc(O)cc2)c2ccccc21 | -0.782
COc1cc(OC)c2c(=O)cc(-c3ccccc3)oc2c1 | 0.694
COc1ccc2c(C)cc(=O)oc2c1 | 0.9
COC(=O)C[C@H]1C(C)(C)[C@@H](O)[C@@H]2CC3=C4C=C(OC)O[C@@H](c5ccoc5)[C@]4(C)CCC3[C@@]1(C)C2=O (stereo partly drawn) [3-DEOXO-3beta-HYDROXYMEXICANOLIDE 16-ENOL ETHER] | 2.88
CCCc1ncc(C[n+]2ccccc2C)c(N)n1 | 0.312
C=CC(C)(O)CCC=C(C)CCC=C(C)C (mixture of isomers) | 0.839
COc1c(-c2coc3cc4c(cc3c2=O)CC(O)C(C)(C)O4)ccc2c1C=CC(C)(C)O2 (stereo not drawn) | 2.38
Cc1cn[nH]c1 | 0.501
NCCc1c[nH]cn1 | 1.79
OC(Cn1cncn1)(Cn1cncn1)c1ccc(F)cc1F | 2.32
Nc1[nH]cnc2ncnc1-2 | -0.0308
CC(=O)[C@@]1(O)CC[C@H]2[C@@H]3C=C(Cl)C4=CC(=O)[C@@H]5C[C@@H]5[C@]4(C)[C@H]3CC[C@@]21C | 1.93
NS(=O)(=O)c1cc(C2(O)NC(=O)c3ccccc32)ccc1Cl (stereo not drawn) | -3.14
CCCCCCCCCCCCCCCC(=O)OC/C=C(C)/C=C/C=C(C)/C=C/C1=C(C)CCCC1(C)C | 0.15
Cc1ncc(C[n+]2csc(CCO)c2C)c(N)n1 | 2.25
CC(C)c1c(C(=O)Nc2ccccc2)c(-c2ccccc2)c(-c2ccc(F)cc2)n1CC[C@@H](O)C[C@@H](O)CC(=O)O | 0.549
CC(=O)OCC(=O)[C@@]1(O)CC[C@H]2[C@@H]3CCC4=CC(=O)CC[C@]4(C)[C@H]3[C@@H](O)C[C@@]21C | -2
CC(=O)OCC(=O)[C@@]1(O)CC[C@H]2[C@@H]3CCC4=CC(=O)C=C[C@]4(C)[C@@]3(Cl)[C@@H](Cl)C[C@@]21C | 0.148
